Measured values published in the supplement of paper PMC9744312.
Where a name gives a salt, the structure may show the parent alone. This is one part of the list. The data scatter; read single values as rough.

Test system: Peyronie's disease tunica albuginea primary fibroblasts
Test: inhibition of TGF-beta1-induced alpha-SMA expression (myofibroblast transformation), relative to TGF-beta1-only and untreated controls; higher = stronger inhibition of myofibroblast transformation
Conditions: 10 µM; TGF-beta1 10 ng/mL; 72 h

Row | Compound | inhibition of TGF-beta1-induced alpha-SMA expression [%]
1 | CN(C)CC/C=C1/c2ccccc2Sc2ccc(Cl)cc21 [Chlorprothixene hydrochloride] | 69.5
2 | CN(C)CC/C=C1/c2ccccc2Sc2ccc(Cl)cc21 [Chlorprothixene] | 73.4
3 | CC1(C)CCC(C)(C)c2cc(NC(=O)c3ccc(C(=O)O)cc3)ccc21 [Tamibarotene] | -72.9
4 | N[C@@H](Cc1cc(I)c(Oc2cc(I)c(O)c(I)c2)c(I)c1)C(=O)O [Levothyroxine sodium] | 2.72
5 | N[C@@H](Cc1cc(I)c(Oc2cc(I)c(O)c(I)c2)c(I)c1)C(=O)O [L-Thyroxine] | -8.86
6 | COc1cc(C(=O)O)ccc1NC(=O)[C@@H]1N[C@@H](CC(C)(C)C)[C@](C#N)(c2ccc(Cl)cc2F)[C@H]1c1cccc(Cl)c1F [Idasanutlin (RG-7388)] | 7.59
7 | N=C(N)NC(=O)Cc1c(Cl)cccc1Cl [Guanfacine Hydrochloride] | 18.9
8 | COc1cc(O)c(C(=O)c2ccccc2)cc1S(=O)(=O)O [Sulisobenzone] | -19.8
9 | Nc1cccc2c1C(=O)N(C1CCC(=O)NC1=O)C2=O (configuration not stated) [Pomalidomide] | 60.4
10 | Nc1ccn([C@@H]2O[C@H](CO)[C@@H](O)C2(F)F)c(=O)n1 [Gemcitabine] | 5.37
11 | Nc1ccn([C@@H]2O[C@H](CO)[C@@H](O)C2(F)F)c(=O)n1 [Gemcitabine HCl] | -4.16
12 | CC(O)C(=O)O.N (configuration not stated) [Ammonium lactate] | 10.9
13 | CN(C)CCN(Cc1ccccc1)c1ccccn1 [Tripelennamine HCl] | 14
14 | CC1CNc2c(cccc2S(=O)(=O)N[C@@H](CCCNC(=N)N)C(=O)N2CC[C@@H](C)C[C@@H]2C(=O)O)C1 (some centres not stated) [Argatroban Monohydrate] | 27.7
15 | CC1CNc2c(cccc2S(=O)(=O)N[C@@H](CCCNC(=N)N)C(=O)N2CC[C@@H](C)C[C@@H]2C(=O)O)C1 (some centres not stated) [Argatroban] | 15.4
16 | CO[C@H]1C[C@@H]2CC[C@@H](C)[C@@](O)(O2)C(=O)C(=O)N2CCCC[C@H]2C(=O)O[C@H]([C@H](C)C[C@@H]2CC[C@@H](OCCO)[C@H](OC)C2)CC(=O)[C@H](C)/C=C(\C)[C@@H](O)[C@@H](OC)C(=O)[C@H](C)C[C@H](C)/C=C/C=C/C=C/1C [Everolimus (RAD001)] | -40.7
17 | CC(=O)O[C@@]12CO[C@@H]1C[C@H](O)[C@@]1(C)C(=O)[C@H](O)C3=C(C)[C@@H](OC(=O)[C@H](O)[C@@H](NC(=O)OC(C)(C)C)c4ccccc4)C[C@@](O)([C@@H](OC(=O)c4ccccc4)[C@H]21)C3(C)C [Docetaxel] | 70.2
18 | CC(=O)O[C@@]12CO[C@@H]1C[C@H](O)[C@@]1(C)C(=O)[C@H](O)C3=C(C)[C@@H](OC(=O)[C@H](O)[C@@H](NC(=O)OC(C)(C)C)c4ccccc4)C[C@@](O)([C@@H](OC(=O)c4ccccc4)[C@H]21)C3(C)C [Docetaxel Trihydrate] | 82.6
19 | Clc1ccc(CSC(Cn2ccnc2)c2ccc(Cl)cc2Cl)cc1 (configuration not stated) [Sulconazole Nitrate] | 52.9
20 | Nc1ncnc2c1ncn2[C@@H]1O[C@H](CO)[C@@H](O)[C@H]1O [Adenosine] | -2.73
21 | CC(=O)Oc1ccc(C(=C2CCCCC2)c2ccc(OC(C)=O)cc2)cc1 [Cyclofenil] | 0.151
22 | CC(C)c1cc(-c2n[nH]c(=O)n2-c2ccc3c(ccn3C)c2)c(O)cc1O [Ganetespib (STA-9090)] | > 100
23 | CC(=O)O[C@]1(C(C)=O)CC[C@H]2[C@@H]3C=C(Cl)C4=CC(=O)[C@@H]5C[C@@H]5[C@]4(C)[C@H]3CC[C@@]21C [Cyproterone Acetate] | 9.78

Row | Compound | inhibition of TGF-beta1-induced alpha-SMA expression [%]
24 | CCCSc1nc(N[C@@H]2C[C@H]2c2ccc(F)c(F)c2)c2nnn([C@@H]3C[C@H](OCCO)[C@@H](O)[C@H]3O)c2n1 [Ticagrelor] | -11.1
25 | O=C(O)COCCN1CCN(C(c2ccccc2)c2ccc(Cl)cc2)CC1 (configuration not stated) [Cetirizine DiHCl] | -6.34
26 | N[C@@H]1CONC1=O [D-Cycloserine] | 46
27 | N[C@@H](Cc1c[nH]c2ccc(O)cc12)C(=O)O [5-hydroxytryptophan (5-HTP)] | 16.7
28 | CC#CC(=O)N1CCC[C@H]1c1nc(-c2ccc(C(=O)Nc3ccccn3)cc2)c2c(N)nccn12 [Acalabrutinib (ACP-196)] | 75.2
29 | CN1C[C@@H]2C[C@H]1CN2c1cc2c(cc1F)c(=O)c(C(=O)O)cn2C1CC1 [Danofloxacin Mesylate] | 17.8
30 | NC(=O)c1nc(F)cnc1O [Favipiravir (T-705)] | 36.2
31 | N=C(N)Nc1ccc(C(=O)Oc2ccc3cc(C(=N)N)ccc3c2)cc1 [Nafamostat Mesylate] | 17.9
32 | COc1cc2nc(N(C)CCCNC(=O)C3CCCO3)nc(N)c2cc1OC (configuration not stated) [Alfuzosin HCl] | 13.3
33 | CCCCc1nc2cc(/C=C/C(=O)NO)ccc2n1CCN(CC)CC [Pracinostat (SB939)] | > 100
34 | CCCCCOc1ccc(-c2cc(-c3ccc(C(=O)N[C@H]4C[C@@H](O)[C@@H](O)NC(=O)[C@@H]5[C@@H](O)[C@@H](C)CN5C(=O)[C@H]([C@H](O)CC(N)=O)NC(=O)[C@H]([C@H](O)[C@@H](O)c5ccc(O)c(OS(=O)(=O)O)c5)NC(=O)[C@@H]5C[C@@H](O)CN5C(=O)[C@H]([C@@H](C)O)NC4=O)cc3)no2)cc1 [Micafungin Sodium] | -1.91
35 | CC(=O)Oc1ccccc1C(=O)O [Aspirin] | 21.6
36 | CNS(=O)(=O)CCc1ccc2[nH]cc(C3CCN(C)CC3)c2c1 [Naratriptan HCl] | 16
37 | O=C(Nc1nc2cccc(-c3ccc(CN4CCS(=O)(=O)CC4)cc3)n2n1)C1CC1 [Filgotinib (GLPG0634)] | -11.3
38 | N=C(N)NS(=O)(=O)c1ccc(N)cc1 [Sulfaguanidine] | -0.812
39 | C[C@]12CC[C@H](O)CC1=CC[C@@H]1[C@@H]2CC[C@]2(C)C(n3cnc4ccccc43)=CC[C@@H]12 [Galeterone] | -7.02
40 | CNC(=O)CN(CCN(CCN(CC(=O)[O-])CC(=O)NC)CC(=O)[O-])CC(=O)[O-].O.[Gd+3] [Gadodiamide Hydrate] | 5.91
41 | CC1=C(/C=C/C(C)=C/C=C/C(C)=C/C(=O)O)C(C)(C)CCC1 [Tretinoin] | -19.4
42 | CCc1c(C)[nH]c2c1C(=O)C(CN1CCOCC1)CC2 (configuration not stated) [Molindone hydrochloride] | 7.55
43 | C#Cc1cccc(Nc2ncnc3cc4c(cc23)OCCOCCOCCO4)c1 [Icotinib] | -21
44 | C=CC(=O)Nc1cc(Nc2nccc(-c3cn(C)c4ccccc34)n2)c(OC)cc1N(C)CCN(C)C [Osimertinib (AZD9291)] | > 100
45 | N[C@@H](CCC(=O)N[C@@H](CS)C(=O)NCC(=O)O)C(=O)O [Glutathione] | 2.68
46 | CC1=C(C(=O)O)N2C(=O)[C@@H](NC(=O)[C@H](N)C3=CCC=CC3)[C@H]2SC1 [Cephradine monohydrate] | 40.6

Row | Compound | inhibition of TGF-beta1-induced alpha-SMA expression [%]
47 | CC1=C(C(=O)O)N2C(=O)[C@@H](NC(=O)[C@H](N)C3=CCC=CC3)[C@H]2SC1 [Cefradine] | 6.72
48 | OC(c1ccccc1)(c1ccccc1)C12CC[N+](CCOCc3ccccc3)(CC1)CC2 [Umeclidinium bromide] | 13.3
49 | CC1(C)[C@H](C(=O)O)N2C(=O)C[C@H]2S1(=O)=O [Sulbactam sodium] | 13.6
50 | CC1(C)[C@H](C(=O)O)N2C(=O)C[C@H]2S1(=O)=O [Sulbactam] | 18.3
51 | Cc1ncc(CO)c(CO)c1O [Pyridoxine] | -3.56
52 | Cc1ncc(CO)c(CO)c1O [Pyridoxine HCl] | 56.6
53 | Cc1c(C(=O)NN2CCCCC2)nn(-c2ccc(Cl)cc2Cl)c1-c1ccc(Cl)cc1 [Rimonabant] | > 100
54 | COc1nc2ccc(Br)cc2cc1[C@@H](c1ccccc1)[C@@](O)(CCN(C)C)c1cccc2ccccc12 [Bedaquiline fumarate] | 16.7
55 | COc1nc2ccc(Br)cc2cc1[C@@H](c1ccccc1)[C@@](O)(CCN(C)C)c1cccc2ccccc12 [Bedaquiline] | 21
56 | COc1cc2c(cc1OC)CC(=O)N(CCCN(C)C[C@H]1Cc3cc(OC)c(OC)cc31)CC2 [Ivabradine HCl] | 5.09
57 | C[C@H]1c2cccc(O)c2C(=O)C2=C(O)[C@]3(O)C(=O)C(C(N)=O)=C(O)[C@@H](N(C)C)[C@@H]3[C@@H](O)[C@@H]21 [Doxycycline Hyclate] | 14.9
58 | C[C@H]1c2cccc(O)c2C(=O)C2=C(O)[C@]3(O)C(=O)C(C(N)=O)=C(O)[C@@H](N(C)C)[C@@H]3[C@@H](O)[C@@H]21 [Doxycycline] | 20.3
59 | Clc1ccc(C(Cn2ccnc2)OCc2ccsc2Cl)c(Cl)c1 (configuration not stated) [Tioconazole] | 47.5
60 | C[C@](N)(Cc1ccc(O)c(O)c1)C(=O)O [Methyldopa] | 1.63
61 | NC(=O)CCC(N)C(=O)O (racemic) [DL-Glutamine] | -7.21
62 | CCOC(=O)O[C@]1(C(=O)OCCl)CC[C@H]2[C@@H]3CCC4=CC(=O)C=C[C@]4(C)[C@H]3[C@@H](O)C[C@@]21C [Loteprednol etabonate] | 46.1
63 | CCc1cc2c(cc1N1CCC(N3CCOCC3)CC1)C(C)(C)c1[nH]c3cc(C#N)ccc3c1C2=O [Alectinib hydrochloride] | -2.14
64 | O=C(O)C(=O)O.[NH-][C@@H]1CCCC[C@H]1[NH-].[Pt+2] [Oxaliplatin] | 25.1
65 | CC(C)C(=O)Oc1ccc(CO)cc1[C@H](CCN(C(C)C)C(C)C)c1ccccc1 [Fesoterodine Fumarate] | 0.0929
66 | Cc1ccc(NC(=O)c2ccc(CN3CCN(C)CC3)cc2)cc1Nc1nccc(-c2cccnc2)n1 [Imatinib (STI571)] | 35.8
67 | Cc1ccc(NC(=O)c2ccc(CN3CCN(C)CC3)cc2)cc1Nc1nccc(-c2cccnc2)n1 [Imatinib Mesylate (STI571)] | 21.9

Exported as a markdown table: entries from further up.

| Row | Compound | inhibition of TGF-beta1-induced alpha-SMA expression [%] |
| --- | --- | --- |
| 49 | CC1(C)[C@H](C(=O)O)N2C(=O)C[C@H]2S1(=O)=O [Sulbactam sodium] | 13.6 |
| 50 | CC1(C)[C@H](C(=O)O)N2C(=O)C[C@H]2S1(=O)=O [Sulbactam] | 18.3 |
| 51 | Cc1ncc(CO)c(CO)c1O [Pyridoxine] | -3.56 |
| 52 | Cc1ncc(CO)c(CO)c1O [Pyridoxine HCl] | 56.6 |
| 53 | Cc1c(C(=O)NN2CCCCC2)nn(-c2ccc(Cl)cc2Cl)c1-c1ccc(Cl)cc1 [Rimonabant] | > 100 |
| 54 | COc1nc2ccc(Br)cc2cc1[C@@H](c1ccccc1)[C@@](O)(CCN(C)C)c1cccc2ccccc12 [Bedaquiline fumarate] | 16.7 |
| 55 | COc1nc2ccc(Br)cc2cc1[C@@H](c1ccccc1)[C@@](O)(CCN(C)C)c1cccc2ccccc12 [Bedaquiline] | 21 |
| 56 | COc1cc2c(cc1OC)CC(=O)N(CCCN(C)C[C@H]1Cc3cc(OC)c(OC)cc31)CC2 [Ivabradine HCl] | 5.09 |
| 57 | C[C@H]1c2cccc(O)c2C(=O)C2=C(O)[C@]3(O)C(=O)C(C(N)=O)=C(O)[C@@H](N(C)C)[C@@H]3[C@@H](O)[C@@H]21 [Doxycycline Hyclate] | 14.9 |
| 58 | C[C@H]1c2cccc(O)c2C(=O)C2=C(O)[C@]3(O)C(=O)C(C(N)=O)=C(O)[C@@H](N(C)C)[C@@H]3[C@@H](O)[C@@H]21 [Doxycycline] | 20.3 |
| 59 | Clc1ccc(C(Cn2ccnc2)OCc2ccsc2Cl)c(Cl)c1 (configuration not stated) [Tioconazole] | 47.5 |
| 60 | C[C@](N)(Cc1ccc(O)c(O)c1)C(=O)O [Methyldopa] | 1.63 |
| 61 | NC(=O)CCC(N)C(=O)O (racemic) [DL-Glutamine] | -7.21 |
| 62 | CCOC(=O)O[C@]1(C(=O)OCCl)CC[C@H]2[C@@H]3CCC4=CC(=O)C=C[C@]4(C)[C@H]3[C@@H](O)C[C@@]21C [Loteprednol etabonate] | 46.1 |
| 63 | CCc1cc2c(cc1N1CCC(N3CCOCC3)CC1)C(C)(C)c1[nH]c3cc(C#N)ccc3c1C2=O [Alectinib hydrochloride] | -2.14 |
| 64 | O=C(O)C(=O)O.[NH-][C@@H]1CCCC[C@H]1[NH-].[Pt+2] [Oxaliplatin] | 25.1 |
| 65 | CC(C)C(=O)Oc1ccc(CO)cc1[C@H](CCN(C(C)C)C(C)C)c1ccccc1 [Fesoterodine Fumarate] | 0.0929 |
